Among all 31,000 sequences or so, about 1,400 (4.5%) were called active.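 Rule for the calls: active = median seed-adjusted z-score above 1 or below -1; inactive = the rest.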 The list shows a part of the results.
Assay: Novel Modifiers of Survival Motor Neuron (SMN) Protein: Gene Identification via Genome-wide siRNA Screen;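 note: luminescence tracks full-length SMN protein made from the SMN2 reporter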
Settings: HEK293T SMN2-luciferase reporter, siRNA knockdown, 72 h; actives lie on both sides
How it was run: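 siRNA screen, 10418 genes ×3 siRNAs; 1 pmol/well, lipid reverse transfection into HEK293T SMN2-luc reporter line. 72 h, 37 °C, 5% CO2; ONE-Glo readout. Data: neg-ctrl normalized, log10, MAD; hit = MAD >1.0 or < -1.0.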
With CCACGUAAGCAAAAGAGCATT against GAB1 the median seed-adjusted z-score was inactive: 0.373. For GGGACAAGCUUGACAAGGUTT against TRIM62, the median seed-adjusted z-score was inactive: -0.000231. For GGAGGAUCACCGACGUGAUTT against CTRB1, the median seed-adjusted z-score was inactive: -0.214. With AACUAGUAAGGCUCAGUAATT against AKAP7 the median seed-adjusted z-score was inactive: 0.37. With GAUCUUUCCUGGUCCAAAATT against GABBR1 the median seed-adjusted z-score was inactive: -0.0526. In the case of CGGUGUCAGUCAUCGAUGATT against ATP6V0D1, the median seed-adjusted z-score is reported as inactive: -0.242. With GGAUAAACCAGGAACUGAATT against KIF7 the median seed-adjusted z-score was inactive: 0.0274. For GCAAGGUCUCCAUCCUAGATT against PRKAR1B, the median seed-adjusted z-score was inactive: -0.0406. For GCAACAGCUCAAAAACGAATT against UAP1, the median seed-adjusted z-score was inactive: 0.0411. In the case of UCAAAGUAUUGUCCAGACATT against MBOAT7, the median seed-adjusted z-score is reported as inactive: 0.314. With CGUGAUCCCAGUCAUCUUATT against HRH4 the median seed-adjusted z-score was inactive: 0.247. With GCCUCCGAAUGGUACCUGATT against HPD the median seed-adjusted z-score was inactive: -0.126. For GAACCAAGUUGUAUUGUUATT against PLDN, the median seed-adjusted z-score was inactive: -0.164. In the case of AGUCUUCAGCGAGACCCUUTT against SST, the median seed-adjusted z-score is reported as inactive: -0.043. For CGUUAGAGCUGAUUUACGATT against EPRS, the median seed-adjusted z-score was inactive: -0.391. With CGGCGGUUCUAUACUCGUATT against PLAGL2 the median seed-adjusted z-score was inactive: 0.0744. In the case of CAUCUGAUCUGAAAAGGCATT against ZFP161, the median seed-adjusted z-score is reported as inactive: 0.154. In the case of GCAGGUAGCUCAUAUGUUUTT against WDR31, the median seed-adjusted z-score is reported as inactive: 0.796. For CCCGAAAUGUCACUACUAATT against MRE11A, the median seed-adjusted z-score was inactive: 0.0507. In the case of CAGUCCUCUUUGACAUUUATT against ANXA11, the median seed-adjusted z-score is reported as inactive: 0.21. For GGUGUUUGCUGAACAUCGATT against PRCP, the median seed-adjusted z-score was inactive: -0.481. In the case of GCCUAGAUCUCAGGAGUUATT against ABAT, the median seed-adjusted z-score is reported as inactive: 0.0191. With UGGUGGGAGUGAAAGCAGATT against EXOSC7 the median seed-adjusted z-score was inactive: 0.0148. For GGCUGGAUGUCUUGAUCAATT against RDH14, the median seed-adjusted z-score was inactive: 0.0287. In the case of GAACGAUUGUGGACCCUAUTT against TMEM8, the median seed-adjusted z-score is reported as inactive: -0.551. For GUCUCAUCGUACUUCGGAATT against UTRN, the median seed-adjusted z-score was inactive: 0.909. With CCAGUGAGAUAGAAAGUGATT against BTN3A2 the median seed-adjusted z-score was inactive: 0.402. With GAUGGUUAUUGAUUCAGGATT against KPNA3 the median seed-adjusted z-score was inactive: 0.383. For CCAAGUUGAUUUGAGAACATT against HHIP, the median seed-adjusted z-score was inactive: 0. In the case of CUAGUGAACUGAUAGACCATT against RASAL2, the median seed-adjusted z-score is reported as inactive: 0.

Source: PubChem BioAssay AID1347426 (Functional Genomics Laboratory (NCATS/FGL), 2020)
